The source of these data is paper PMC11187910.

The target in this series is T1, OCT6 (endogenous, nuclear extract of Ishikawa cells with WT IDH1) (UniProt Q03052).
T1 sequence (looked up, limits assumed): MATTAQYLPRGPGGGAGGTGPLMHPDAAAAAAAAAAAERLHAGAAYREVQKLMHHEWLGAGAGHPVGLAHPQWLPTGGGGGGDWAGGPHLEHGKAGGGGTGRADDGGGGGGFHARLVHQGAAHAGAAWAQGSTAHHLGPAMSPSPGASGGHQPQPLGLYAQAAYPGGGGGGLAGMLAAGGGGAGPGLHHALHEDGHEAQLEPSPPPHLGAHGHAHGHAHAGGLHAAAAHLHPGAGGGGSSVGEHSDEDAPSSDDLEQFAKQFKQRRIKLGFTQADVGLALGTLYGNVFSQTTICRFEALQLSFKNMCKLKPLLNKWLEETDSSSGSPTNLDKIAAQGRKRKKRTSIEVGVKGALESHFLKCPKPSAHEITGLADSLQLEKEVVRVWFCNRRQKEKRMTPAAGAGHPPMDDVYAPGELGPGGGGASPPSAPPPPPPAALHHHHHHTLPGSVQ
Briefly: EMSA supershift, anti-OCT6. Particulars: MPA-treated cells expressing WT IDH1, nuclear extract 10 ug; 10 mM Tris-HCl pH 7.5, 1 mM MgCl2, 0.5 mM EDTA, 50 mM NaCl, 0.5 mM DTT, 4% glycerol, 0.05 mg/mL poly(dI-dC); 7.5% native PAGE; temperature not stated; protein in an extract; label: biotin. Background: In EMSA bound probe runs differently from free probe, usually more slowly.

Construct, isoform or probe ends are uncertain for at least one entry. At least one result comes from cells or an extract, where the contact may be indirect. At least one verdict rests on a figure or table, not on a statement of the authors. Where a protein sequence is shown, tags need not be part of it.

On to “GCTCTTCACCTTATTTGCATAAGCGAT (double strand) [OCT6 probe (hH2BJ promoter)]”, for which the binding result is on record as “binds”.
